In article PMC7862700:
This is a selection; strong and weak results do not stand in their true shares. At the low end of the ranking the order means little.

Biological target: T1, ETV2 (UniProt O00321)
T1 sequence: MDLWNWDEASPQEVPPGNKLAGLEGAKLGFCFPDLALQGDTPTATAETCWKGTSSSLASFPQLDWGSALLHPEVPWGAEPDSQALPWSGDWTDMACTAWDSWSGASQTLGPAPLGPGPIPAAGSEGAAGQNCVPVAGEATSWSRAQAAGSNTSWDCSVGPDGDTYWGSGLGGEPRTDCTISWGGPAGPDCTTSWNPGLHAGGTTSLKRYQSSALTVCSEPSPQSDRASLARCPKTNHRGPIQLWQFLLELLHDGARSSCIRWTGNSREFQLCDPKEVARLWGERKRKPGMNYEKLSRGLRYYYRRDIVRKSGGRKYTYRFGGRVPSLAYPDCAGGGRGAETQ
Test: DAPPL (digital affinity profiling via proximity ligation, sequencing)
Settings: 10 mM Tris-HCl pH 7.5, 50 mM NaCl, 1 mM DTT, 4% glycerol, room temperature, 30 min; GST-TFs on glutathione beads, 16-mer random dsDNA library, 0.1% …; high values mean tight binding; double strand, one strand shown; scale: fold enrichment (6-mer frequency, TF over GST control)

Sequence | binding signal
GTGCTC | 1.16
ATAAAT | 1.13
AATTAG | 1.12
CGTCTA | 1.29
GAATAA | 1.13
TCTAAA | 1.27
CTTGTG | 1.44
ACGGCC | 1.01
GCCTCG | 1.06
CGCCGA | 1.16
TGCGTA | 1.21
TGCTAC | 1.24
GTCCAC | 1.14
TACACC | 1.19
CCAAAA | 1.28
CGATTG | 1.08
ATTCTG | 1.43
TATGAA | 1.17
AAATAT | 1.49
TATGGT | 1

Sequence | binding signal
TACGTA | 1.33
ATTTGA | 1.16
ACGCCC | 1.05
TTGCCG | 0.936
GAAATG | 1.55
CGATAT | 1.19
CTCGTG | 0.959
CTTCGC | 1.62
CGTCCG | 1.16
TACTTG | 1.46
AGCCTC | 0.926
TTGACC | 1.38
ATCTAC | 1.29
ATACAG | 1.24
TACTTT | 1.33
ACCACT | 1.27
CGCCCG | 0.995
ATACCA | 1.08
TGCCTG | 1.2

Reformatted as tab-separated lines: entries from further up
Sequence	binding signal
TACGTA	1.33
ATTTGA	1.16
ACGCCC	1.05
TTGCCG	0.936
GAAATG	1.55
CGATAT	1.19
CGTCCG	1.16
TACTTG	1.46
TTGACC	1.38
ATCTAC	1.29
ACCACT	1.27
TGCCTG	1.2
